Laboratory results: PubChem BioAssay AID504793 (Drosophila RNAi Screening Center, 2011)

Aim: 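Knock-downs allowing continued mitosis even though DNA is damaged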 (primary screen)
Cells: Drosophila S2R+ cells
Reagent: long dsRNA against Drosophila genes, about 0.25 µg dsRNA per well
Timing: 4 days of dsRNA, then 4 hours of drug before read-out
Challenge: doxorubicin 0.5 µM for 4 hours to cause double-strand breaks, in cells also given a low, harmless dose of dsRNA against nbs to sensitise the assay
Measurement: 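Mitotic index as the number of phospho-histone H3-positive cells in each well following doxorubicin, given as raw counts without normalisation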
Scale: mitotic cells: higher = more cells in mitosis, weaker G2 arrest
Hit rule: 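Genes are called active only when high mitotic counts were reproduced with independent dsRNAs and mitosis was checked for delay without damage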
Calls: active = confirmed in follow-up tests; inactive = not confirmed
In all, the deposit lists about 23,000 reagents; shown is an unselected part of those with a known target gene and a result. In the full data, 62 (0.27%) got an active call. 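Calls come from follow-up tests whose scores are not deposited, so confirmed genes may have low counts here; counts are not normalised per plate.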 Raw values are not corrected between plates. A number with no mark means an inactive call.

no.	gene knocked down	PubChem SID	mitotic cells, replicate 1	mitotic cells, replicate 2
1	Ant2	SID104199122	8	
2	Ant2	SID104204990	4	
3	CDK2AP1	SID104199592	5	
4	CDK2AP1	SID104204181	9	
5	CG34353	SID104194285	11	
6	CG34353	SID104194309	11	
7	CG34353	SID104194355	13	
8	CG34353	SID104195629	9	
9	CG34353	SID104201900	13	
10	CG34353	SID104205639	4	
11	CG34353	SID104208657	6	
12	GalT1	SID104201765	3	
13	sll	SID104196063	3	
14	sll	SID104208408	6	
15	CG34337	SID104198227	13	
16	Sox102F	SID104196996	10	
17	Sox102F	SID104204459	6	
18	RpL36	SID104198500	12	
19	Ntan1	SID104187338	6	
20	SmydA-4	SID104199182	11	
21	SmydA-4	SID104201504	9	
22	SmydA-4	SID104205061	3	
23	CG4465	SID104195376	9	
24	CG3955	SID104186651	5	
25	alphaCOP	SID104188498	9	
26	CG13319	SID104186148	5	
27	Cyp310a1	SID104183093	5	
28	Cyp310a1	SID104207704	8	
29	B-H1	SID104201545	6	
30	B-H1	SID104205734	10	
31	inaC	SID104187424	7	
32	BomBc1	SID104186293	13	
33	BomBc1	SID104202863	11	
34	nuf	SID104191171	4	
35	nuf	SID104202633	9	
36	nuf	SID104205328	7	
37	nuf	SID104207630	2	
38	GEFmeso	SID104186540	7	
39	GEFmeso	SID104186732	1	
40	GEFmeso	SID104201208	24	
41	ifc	SID104183341	3	
42	CG9760	SID104190893	1	
43	CG9760	SID104207390	4	
44	Fkbp12	SID104187217	1	
45	Dyrk2	SID104183402	7	
46	Dyrk2	SID104207573	9	
47	CG42537	SID104192311	10	
48	sun	SID104199932	12	
49	sun	SID104204828	9	
50	RpS20	SID104196628	9	
51	CG42367	SID104201154	5	
52	CG42367	SID104203364	12	
53	flz	SID104186901	6	
54	CG33270	SID104190376	10	

The list goes on, starting with the last 11 of the part before.
no.	gene knocked down	PubChem SID	mitotic cells, replicate 1	mitotic cells, replicate 2
44	Fkbp12	SID104187217	1	
45	Dyrk2	SID104183402	7	
46	Dyrk2	SID104207573	9	
47	CG42537	SID104192311	10	
48	sun	SID104199932	12	
49	sun	SID104204828	9	
50	RpS20	SID104196628	9	
51	CG42367	SID104201154	5	
52	CG42367	SID104203364	12	
53	flz	SID104186901	6	
54	CG33270	SID104190376	10	
55	mth	SID104188517	5	
56	mth	SID104216740	12	
57	Mlh1	SID104187265	6	
58	CG10104	SID104185756	12	
59	Gr10a	SID104198689	4	
60	Gr10a	SID104202151	13	
61	Gr10a	SID104204615	6	
62	Diedel	SID104194109	7	
63	Diedel	SID104206067	2	
64	CR14117	SID104189913	5	
65	CR14117	SID104204494	7	
66	OtopLc	SID104197874	5	
67	OtopLc	SID104197875	11	
68	OtopLc	SID104197924	7	
69	OtopLc	SID104204263	4	
70	OtopLc	SID104204300	2	
71	OtopLc	SID104207021	1	
72	Gr58c	SID104183928	4	
73	RanGAP	SID104201595	11	
74	RanGAP	SID104207944	5	
75	CG34227	SID104186580	9	
76	CG34227	SID104186826	6	
77	Ir40a	SID104183524	6	
78	Ir40a	SID104183525	10	
79	CG13502	SID104183939	4	
80	CG13502	SID104204918	10	
81	Obp56g	SID104186224	9	
82	CAH3	SID104197568	9	
83	mol	SID104181223	4	5
84	mol	SID104181704	2	
85	mol	SID104182271	9	
86	mol	SID104202967	9	
87	CR42546	SID104183503	5	
88	CG3815	SID104198116	8	
89	CG3815	SID104204374	3	
90	Drgx	SID104180070	12	
91	Drgx	SID104180329	9	
92	Drgx	SID104207388	2	
93	CG1640	SID104199542	3	
94	Mal-B1	SID104182208	4	
95	Mal-B1	SID104204087	4	
96	Adat1	SID104183271	6	
97	Adat1	SID104205764	6	
98	uif	SID104183219	4	
99	CG13930	SID104188191	14	
100	CG13930	SID104207038	1	
101	Nepl11	SID104192125	17	
102	Nup160	SID104182566	3	
103	CG34229	SID104186108	3	
104	peo	SID104185787	6	
105	CG14990	SID104188241	6	
106	CG6805	SID104186803	4	
107	CG6805	SID104207896	6	
108	CG8301	SID104196197	4	
109	CG8301	SID104206714	4	
110	CG8441	SID104186972	4	
